A: 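Whole-parasite assay of Trypanosoma brucei over 72 hours; the read-out is not stated. Compounds at 30 µM. Higher reads as stronger inhibition (inferred: compounds with an IC50 in retests scored well above the rest). Values scatter widely below zero; nearly all retest evidence comes from the higher of the two concentrations used. About 64,000 compounds were tested under these conditions; 1.5% (about 940) showed 50% or more at least once.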
B: 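Lysine-tRNA ligase, Plasmodium falciparum 3D7 (UniProt Q8IDJ8). Enzyme assay of the cytosolic lysyl-tRNA synthetase in 384-well plates, read by luminescence. Compounds at 30 µM. Higher reads as stronger inhibition, judged from the few compounds that gave an IC50. Size under these conditions: about 69,000 compounds, about 49 of them at 50% or above in at least one test.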

Amino acid sequences for entries named in this document (tags omitted). Residues count along the entry.
UniProt Q8IDJ8, 1-583: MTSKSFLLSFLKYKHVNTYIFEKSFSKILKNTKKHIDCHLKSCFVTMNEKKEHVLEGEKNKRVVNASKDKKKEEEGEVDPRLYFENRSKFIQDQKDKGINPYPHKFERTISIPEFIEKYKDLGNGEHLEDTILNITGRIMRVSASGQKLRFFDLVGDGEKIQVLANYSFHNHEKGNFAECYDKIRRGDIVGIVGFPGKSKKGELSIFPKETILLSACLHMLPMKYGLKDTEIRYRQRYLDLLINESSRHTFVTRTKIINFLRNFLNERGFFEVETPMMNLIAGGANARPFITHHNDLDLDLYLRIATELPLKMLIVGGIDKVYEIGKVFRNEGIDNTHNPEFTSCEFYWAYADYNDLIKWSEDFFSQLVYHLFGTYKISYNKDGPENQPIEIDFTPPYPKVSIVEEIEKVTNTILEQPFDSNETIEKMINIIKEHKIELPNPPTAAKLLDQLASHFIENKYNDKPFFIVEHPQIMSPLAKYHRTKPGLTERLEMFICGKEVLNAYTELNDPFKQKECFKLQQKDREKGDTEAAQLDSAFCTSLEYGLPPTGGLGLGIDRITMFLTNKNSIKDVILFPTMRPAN

Results are given as percent effect.
The controls that fix the scale are not given in the record; negative values are as filed.
This is an unselected part of the compounds tested.
A dash means the value is not listed here; it may have been measured.

compound,A,B
Cc1cccc(-c2ccc(C(=O)N3CCN(C4CC4)CC3)c(=O)[nH]2)c1,-68.95,-2.126
CC(NC(=O)C1CCCCC1)c1cc(O)nc(-c2cccnc2)n1 (stereo not shown),-3.666,0.1048
O=C(O)C(F)(F)F.O=C(O)C(F)(F)F.[H][C@]12C[C@@H](C(=O)Nc3cccnc3)CO[C@@]1([H])CCN(C(C)C)C2,-10.06,-
CNC(=O)CNC(=O)NCc1cc2c(s1)CCC(C)(C)C2,10.54,0.5367
CCNC(=O)NC(=O)C(C)N1CCCc2cc(OC)ccc2C1 (stereo not shown),-17.9,-1.342
CNC(=O)c1cccnc1NCc1ccc(Cn2cccn2)cc1,-58.06,-0.1848
O=C(c1ccc(Cn2cnnn2)cc1)N1CCC(c2ccncc2)CC1,-31.45,5.697
O=C(CCC(F)(F)F)N1CCCC(CO)(CC2CC2)C1 (stereo not shown),-8.232,2.263
O=C(c1cc(C2CC2)on1)N1C[C@@H]2COC[C@]2(COc2cccnc2)C1,-,3.149
CCNCc1ccc(OCc2ccc3c(c2)OCCO3)cc1.Cl,-18.34,-
CCC(C)N(CC)C(=O)c1ccc2[nH]nnc2c1 (stereo not shown),-46.28,1.736
CN1CCC(c2cnc(NCc3nccn3C)cn2)CC1,-3.378,-1.983
COCCC1(CNC(=O)NCC2CCCN(C)C2)CCCC1 (stereo not shown),-84.48,0.3008
N#Cc1ccc(F)c(CNC(=O)NC(CO)Cc2ccccc2)c1 (stereo not shown),-4.063,1.383
CC(=O)N1CCCn2nc(CNS(=O)(=O)c3cc(C)cs3)cc2C1,-9.748,2.195
CC(C)COC1CCN(C(=O)c2ccc(C(F)(F)F)[nH]c2=O)CC1,7.445,1.032
O=C(c1cccc(Cl)c1)N1CC[C@@H](N2CCC(O)CC2)[C@H](O)C1,-19.43,2.667
CO[C@@H]1CCN(S(=O)(=O)c2cccs2)[C@H]1Cc1cccnc1,-,-1.231
CN(CC(=O)Nc1ccccc1C(=O)NC1CC1)Cc1ccccc1Cl,-3.79,1.535
COCC(C)NC(=O)CCSc1ccc(F)cc1 (stereo not shown),-45.08,-3.958
CCn1c(C)nnc1Sc1nn2cc(C)nc2s1,10.92,4.661
CCNc1nc2c(s1)C(=O)CN(C(=O)NCCc1ccccc1)C2,-7.296,5.539
Cc1nncn1CCNC(=O)C1SCCc2sccc21 (stereo not shown),-30.55,2.641
Cc1ccc(Sc2ccc(CN3CCC4(CC3)NCCNC4=O)o2)cc1,-0.7246,1.615
Cc1ccc(CN2CCc3ncc(CNC(=O)C4CCC4)n3CC2)o1,-,-2.153
c1cnc2c(c1)nc1n2[C@@H](CNCc2nccs2)COC1,12.92,6.46
Cc1noc(C2CCC3(CCN(C(=O)C4=CCCCC4)CC3)O2)n1 (stereo not shown),9.002,0.3001
CN(C)C(=O)Cn1c(C2CC2)c(CN2CCOCC2)c2cccnc21,-10.8,0.186
COC(=O)N1CCc2ccccc2C1C(=O)NCc1ccncc1 (stereo not shown),13.89,5.489
Cc1ccnc(N2CCC(NCCOc3ccccc3)CC2)n1,-43.06,3.573
Cc1ccc(S(=O)(=O)Nc2ccc(N3CCOCC3)cn2)cc1,-20.12,4.466
COCC(=O)N1CCCn2c(CN3CCOCC3)nnc2C1.O=C(O)C(F)(F)F,-25.11,-
CCc1cnc(N2C[C@H]3C[C@H](C(=O)N(C)C)[C@@H](C2)O3)nc1,-,4.746
N#Cc1cnc(NC2CCN(C(=O)C3CC3)CC2)c(Cl)c1,-8.942,3.373
Cc1ccc(CN(Cc2ccccn2)C(=O)[C@H]2CC[C@@H](N)C2)s1,-22.06,5.251
CCN1CCn2c(C)cnc2C12CCN(C(=O)CC(C)C)CC2.O=C(O)C(F)(F)F.O=C(O)C(F)(F)F,37.87,-
CN(CCO)Cc1nnc(C2CCN(C(=O)c3ccccc3)CC2)n1C,18.04,1.713
Cc1c(C(=O)NCC2CCN(C)C2)n(C)c2c(C)cccc12 (stereo not shown),-40.38,-7.919
CCc1ccc(C(=O)O)cc1S(=O)(=O)Nc1ccc2c(c1)OCCO2,-1.42,-0.1272
Cc1ccn2ncc(C(=O)N3CCCC(n4nc(C)nc4C)C3)c2n1 (stereo not shown),21.03,15.94
OCC1CCCN1c1cc(NCCNc2cccnn2)ncn1 (stereo not shown),-72.93,-2.765
CC(CN1CCOCC1)NC1CCN(Cc2cccc(O)c2)CC1 (stereo not shown),-16.55,2.669
Cc1nccc(-c2cccc(NCC(=O)N3CCOC(C)C3)c2)n1 (stereo not shown),18.9,-0.02646
COc1cccc(CNCc2ccc(F)cc2Cl)c1O,11.42,6.331
NC(=O)N1CCCN(CCc2nc(-c3cccc(Cl)c3)no2)CC1,8.461,-0.546
O=C(O)C(F)(F)F.O=C(O)C(F)(F)F.O=C(O)C(F)(F)F.[H][C@@]12CN(Cc3ccco3)C[C@]1([H])OCCN2CCN1CCCC1,-24.23,-
[H][C@@]12CCN(C(=O)c3sccc3S(N)(=O)=O)C[C@@]([H])(CC1)N2C,-83.19,-
CC(C)NC(=O)[C@@H]1C[C@@H](N)CN1C(=O)CCSCc1ccc(F)cc1,-5.528,7.388
Cc1cccc(CN2CCC3(CC2)NC(=O)CC3c2ccccc2)n1.O=C(O)C(F)(F)F (stereo not shown),-26.92,-
COC(=O)[C@H](C)NC(=O)c1cc(-c2cccc(Cl)c2)no1,20.42,0.6384
Cc1cccc(CN2CCn3cc(Cn4cccn4)nc3C2)n1,-,4.686
CCc1cnc(C)nc1NCCN1CCC(O)CC1,-40.19,1.697
CCC(CC)NC(=O)CN1CCSCC1,-6.674,3.861
CCC(Nc1ccc(Oc2ccc(C#N)cc2OC)cc1)C(N)=O (stereo not shown),-11.31,5.776
O=S(=O)(c1ccccc1)N1CCCCC1c1cc[nH]n1 (stereo not shown),-31.44,-5.674
Cc1nc(N2CCCC2)ncc1-c1cc(O)nc(N2CCOCC2)n1,-9.077,4.729
CN1CCN(CCO)C(=O)C12CCN(Cc1ccsc1)CC2,-,3.561
CCCNC(=O)[C@@H]1CCCN1[C@@H](C(=O)NC)C1CC1.Cl,-10.77,-
COc1ccc2c(=O)ccn(CC(=O)O)c2c1,-50.5,1.701
[H][C@]12CCN(C(=O)Cc3cccc(OC)c3)[C@@]1([H])CCC(=O)N2C,-22.49,-
COc1cccc(N2CCN(C(=O)COc3c(C)occc3=O)CC2)c1,-14.53,1.861
CN1CCN(Cc2ccccc2Oc2cncc(C(N)=O)n2)CC1,-41.03,-3.069
CCn1c(C2CCN(C(=O)c3ccc4cc[nH]c4c3)CC2)n[nH]c1=O,-106.8,0.0846
O=C1C[C@H]2CC[C@@H](CN1)N2C(=O)CCc1ccccc1,-,-0.3027
Cc1cc(C(=O)N(C)C)nc(C2(C)CCCN2c2ccccc2)n1 (stereo not shown),-9.523,-0.2134
CC(C)(C)c1ccn(C2(C(=O)O)CCN(c3ccncc3F)CC2)n1,-18.97,4.104
COc1c(C(=O)N2CCOCC2)cnc2c1c(C)nn2C,-6.116,4.011
COc1ccc(C(=O)NC2CC2)c(OC2CCN(C(C)CO)CC2)c1 (stereo not shown),-27.26,6.918

Once more, the final 8:

With COc1cccc(N2CCN(C(=O)COc3c(C)occc3=O)CC2)c1 the screen gave A: -14.53%; B: 1.861%.
With CN1CCN(Cc2ccccc2Oc2cncc(C(N)=O)n2)CC1 the screen gave A: -41.03%; B: -3.069%.
With CCn1c(C2CCN(C(=O)c3ccc4cc[nH]c4c3)CC2)n[nH]c1=O the screen gave A: -106.8%; B: 0.0846%.
With O=C1C[C@H]2CC[C@@H](CN1)N2C(=O)CCc1ccccc1 the screen gave B: -0.3027%.
With Cc1cc(C(=O)N(C)C)nc(C2(C)CCCN2c2ccccc2)n1 (stereo not shown) the screen gave A: -9.523%; B: -0.2134%.
With CC(C)(C)c1ccn(C2(C(=O)O)CCN(c3ccncc3F)CC2)n1 the screen gave A: -18.97%; B: 4.104%.
With COc1c(C(=O)N2CCOCC2)cnc2c1c(C)nn2C the screen gave A: -6.116%; B: 4.011%.
With COc1ccc(C(=O)NC2CC2)c(OC2CCN(C(C)CO)CC2)c1 (stereo not shown) the screen gave A: -27.26%; B: 6.918%.

Source: ChEMBL document CHEMBL3988442, “University of Dundee, Small-Polar-MMV Screening Library” (2021).